Assay results from PMC6199744, “Development of Chemical Proteomics for the Folateome and Analysis of the Kinetoplastid Folateome” (ACS Infectious Diseases, 2018).
Further values from the same series stand in other lists.

Tested on: L. major lysate proteins
Assay: Multitargeted bead mixture chemoproteomics, single concentration competition, proteome-wide
Type: binding
Settings: for fold change: vehicle control = 1

Question: What does the source list for `Nc1nc2cccc(-c3ccccc3)c2n1Cc1ccc(Cl)c(Cl)c1` [compound 3]?
Answer: fold change (LINJ.11.0960 40S RIBOSOMAL PROTEIN S5): 0.95; fold change (LINJ.11.1180 40S RIBOSOMAL PROTEIN S15A, PUTATIVE): 1.21; fold change (LINJ.15.1170 HY[…], CONSERVED): 1.1; fold change (LINJ.18.0270 GLYCOGEN SYNTHASE KINASE 3): 0.77; fold change (LINJ.21.1790 40S RIBOSOMAL PROTEIN S11, PUTATIVE): 0.94; fold change (LINJ.22.0180 HY[…], CONSERVED): 0.82; fold change (LINJ.25.2170 HY[…], CONSERVED): 1.07; fold change (LINJ.28.2870 PROTEIN PHOSPHATASE 4 CATALYTIC SUBUNIT, PUTATIVE): 0.83; fold change (LINJ.29.0020 TRA[…]-LIKE PROTEIN): 1.09; fold change (LINJ.29.0110 HY[…], CONSERVED): 0.52; fold change (LINJ.33.0960 40S RIBOSOMAL PROTEIN S3, PUTATIVE): 1.13; fold change (LINJ.35.1820 HY[…], CONSERVED): 0.89; fold change (LINJ.35.2240 RNA-BINDING PROTEIN, PUTATIVE): 0.8; fold change (LINJ.36.1160 RIBOSOMAL PROTEIN L24, PUTATIVE): 0.76; fold change (LINJ.36.1580 HY[…], CONSERVED,NIMA-RELATED PROTEIN KINASE, PUTATIVE): 0.84; fold change (LMJF.01.0570 TRIC[…], PUTATIVE): 0.88; fold change (LMJF.03.0190 U2 SPLICING AUXILIARY FACTOR, PUTATIVE): 1.01; fold change (LMJF.03.0540 26S PROTEASE […], PUTATIVE): 0.92; fold change (LMJF.05.0280 PROTEIN TYROSINE PHOSPHATASE, PUTATIVE): 1; fold change (LMJF.05.1140 VACUOLAR ATPASE SUBUNIT-LIKE PROTEIN): 0.97; fold change (LMJF.06.0370 GLUTAMINE SYNTHETASE, PUTATIVE): 0.9; fold change (LMJF.07.1050 CATION-TR[…], PUTATIVE): 0.98; fold change (LMJF.08.0410 HY[…], CONSERVED): 0.95; fold change (LMJF.10.0310 PROTEIN TRANSPORT PROTEIN SEC23, PUTATIVE): 1.06; fold change (LMJF.10.0910 SMALL GTP-BINDING PROTEIN RAB11, PUTATIVE): 0.92; fold change (LMJF.11.0590 3-[…]-COA C[…] SUBUNIT, PUTATIVE): 0.89; fold change (LMJF.11.1000 PYRUVATE PHOSPHATE DIKINASE, PUTATIVE): 0.91; fold change (LMJF.11.1030 HY[…], CONSERVED): 1.02; fold change (LMJF.13.1230 40S RIBOSOMAL PROTEIN S4, PUTATIVE): 1.21; fold change (LMJF.14.0670 FATTY ACID ELONGASE, PUTATIVE): 0.95; fold change (LMJF.14.1320 SERINE […] (SHMT-S)): 0.94; fold change (LMJF.15.0040 HY[…], CONSERVED): 0.71; fold change (LMJF.15.0970 NAD/FAD DEPENDENT DEHYDROGENASE, PUTATIVE): 0.85; fold change (LMJF.16.0440 FUCOSE KINASE, PUTATIVE): 0.83; fold change (LMJF.16.0550 OROTIDINE-5-PHOSPHATE DECARBOXYLASE/OROTATE PHOSPHORIBOSYLTRANSFERASE, PUTATIVE): 0.99; fold change (LMJF.17.1290 T[…], PUTATIVE): 0.68; fold change (LMJF.18.0700 HY[…], CONSERVED): 1.02; fold change (LMJF.18.1090 CAMP PHOSPHO[…], PUTATIVE): 1.05; fold change (LMJF.18.1280 HY[…], CONSERVED): 0.96; fold change (LMJF.18.1510 P-TYPE H -ATPASE, PUTATIVE): 1.2; fold change (LMJF.19.0200 ADP,ATP CARRIER PROTEIN 1, MIT[…], PUTATIVE): 1.11; fold change (LMJF.19.1510 HY[…], CONSERVED): 1.51; fold change (LMJF.20.1180 CALPAIN-LIKE CYSTEINE PEPTIDASE, PUTATIVE): 0.82; fold change (LMJF.21.0015 HISTONE H4): 1.06; fold change (LMJF.21.0250 HEXOKINASE, PUTATIVE): 0.97; fold change (LMJF.21.0820 HY[…], CONSERVED): 0.89; fold change (LMJF.21.1450 ARGININE N-METHYLTRANSFERASE, TYPE II, PUTATIVE): 1; fold change (LMJF.21.1770 ATP SYNTHASE F1 SUBUNIT GAMMA PROTEIN, PUTATIVE): 1.07; fold change (LMJF.21.1860 BETA TUBULIN): 1.08; fold change (LMJF.22.0770 NADH-CYTOCHROME B5 REDUCTASE, PUTATIVE): 1.16; fold change (LMJF.22.0990 HY[…], CONSERVED): 0.9; fold change (LMJF.22.1630 CCR4 […], PUTATIVE): 0.65; fold change (LMJF.23.0080 HY[…], CONSERVED): 0.83; fold change (LMJF.23.0110 GDP-MANNOSE PYROPHOSPHORYLASE): 0.84; fold change (LMJF.23.0210 ATP-BINDING CASSETTE PROTEIN SUBFAMILY C, MEMBER 1, PUTATIVE): 0.99; fold change (LMJF.23.0640 HY[…], CONSERVED): 0.87; fold change (LMJF.24.0070 HY[…], CONSERVED): 0.75; fold change (LMJF.27.0130 HY[…], CONSERVED): 1.26; fold change (LMJF.27.0650 HY[…], CONSERVED): 1.14; fold change (LMJF.28.2510 ACYL-COA DEHYDROGENASE, PUTATIVE): 0.89; fold change (LMJF.29.1500 HY[…], CONSERVED): 1.05; fold change (LMJF.29.2200 GTP-BINDING PROTEIN, PUTATIVE): 0.94; fold change (LMJF.29.2360 ASPARTYL AMINOPEPTIDASE, PUTATIVE): 0.83; fold change (LMJF.30.0580 HY[…], CONSERVED): 1.05; fold change (LMJF.30.1040 HY[…], CONSERVED): 0.76; fold change (LMJF.30.3530 HY[…], CONSERVED): 0.83; fold change (LMJF.30.3570 ZINC FINGER-DOMAIN PROTEIN, PUTATIVE): 1.03; fold change (LMJF.31.1110 HY[…], CONSERVED): 0.83; fold change (LMJF.31.2640 2-OXOGLUTARATE DEHYDROGENASE, E3 COMPONENT, […]-LIKE PROTEIN): 0.85; fold change (LMJF.32.0450 AF467951_1 ribosomal protein S2): 1.16; fold change (LMJF.33.3270 DELTA-12 FATTY ACID DESATURASE): 1.2; fold change (LMJF.34.0010 HY[…], CONSERVED): 0.92; fold change (LMJF.34.2610 ATP-DEPENDENT DNA HELICASE, PUTATIVE): 0.87; fold change (LMJF.34.4620 HY[…], CONSERVED): 1.08; fold change (LMJF.35.2150 HY[…], CONSERVED): 1.01; fold change (LMJF.35.2980 CHAPERONE PROTEIN DNAJ, PUTATIVE): 0.77; fold change (LMJF.35.4300 HY[…], CONSERVED): 0.8; fold change (LMJF.35.4880 HY[…], CONSERVED): 1.31; fold change (LMJF.36.0250 EIF3-I[…]-LIKE PROTEIN): 0.94; fold change (LMJF.36.1940 INOSINE-GUANOSINE TRANSPORTER): 1.01; fold change (protein AF312586_1 IRON […] B1 (AF312583_1 iron […] B2)): 1.08; fold change (protein CLM00008612.1 UNNAMED PROTEIN PRODUCT): 1.12; fold change (protein LINJ.01.0790 […] 4A, PUTATIVE): 1.15; fold change (protein LINJ.03.0240 RIBOSOMAL PROTEIN L38, PUTATIVE): 1.18; fold change vs vehicle control (protein LINJ.04.0630 HY[…], CONSERVED): 0.97; fold change (protein LINJ.05.0070 DYNEIN LIGHT CHAIN, PUTATIVE): 1.04; fold change (protein LINJ.07.0210 CYTOCHROME C1, HEME PROTEIN, MIT[…], PUTATIVE): 1.28; fold change vs vehicle control (protein LINJ.08.1020 STRESS-INDUCED PROTEIN STI1): 1.03; fold change (protein LINJ.16.1510 PAR[…] PROTEIN 2C): 1.03; fold change (protein LINJ.19.0140 PROTEIN KINASE, PUTATIVE,MITOGEN-ACTIVATED PROTEIN KINASE, PUTATIVE): 1.1; fold change (protein LINJ.23.0860 3-KETOACYL-COA THIOLASE, PUTATIVE): 1.02; fold change (protein LINJ.24.2300 60S RIBOSOMAL PROTEIN L12, PUTATIVE): 1.07; fold change (protein LINJ.25.1460 GTP-BINDING PROTEIN, PUTATIVE): 0.97; fold change (protein LINJ.25.2230 SUCCINYL-COA […] SUBUNIT, PUTATIVE): 1.04; fold change (protein LINJ.26.0590 10 KDA HEAT SHOCK PROTEIN, PUTATIVE): 0.85; fold change (protein LINJ.26.0840 40S RIBOSOMAL PROTEIN S16, PUTATIVE): 1.16; fold change (protein LINJ.28.1310 GLUCOSE-REGULATED PROTEIN 78, PUTATIVE): 1.05; fold change (protein LINJ.28.1850 […]-ATP-ASE SUBUNIT 2, PUTATIVE): 1.66; fold change (protein LINJ.28.2280 DYNEIN LIGHT CHAIN LC6, FLAGELLAR OUTER ARM, PUTATIVE): 1.04; fold change (protein LINJ.31.0710 HY[…], CONSERVED): 1.33; fold change (protein LINJ.32.0240 DYNEIN LIGHT CHAIN, FLAGELLAR OUTER ARM, PUTATIVE): 0.99; fold change vs vehicle control (protein LINJ.32.2960 […]-ATP-ASE SUBUNIT, PUTATIVE): 0.98; fold change (protein LINJ.32.3230 PROTEIN PHOSPHATASE 2A CATALYTIC SUBUNIT, PUTATIVE): 0.88; fold change (protein LINJ.33.0350 HEAT SHOCK PROTEIN 83-1): 1.1; fold change (protein LINJ.35.2250 kinetoplastid membrane protein 11): 0.81; fold change (protein LINJ.35.3840 60S RIBOSOMAL PROTEIN L23, PUTATIVE): 1.22; fold change vs vehicle control (protein LINJ.35.4200 POLY(A)-BINDING PROTEIN 2,POLY(A) BINDING PROTEIN, PUTATIVE): 1.12; fold change (protein LMJF.01.0320 POLY(A) EXPORT PROTEIN, PUTATIVE): 0.97; fold change (protein LMJF.01.0650 MIT[…] BETA SUBUNIT, PUTATIVE): 1.09; fold change (protein LMJF.02.0450 VOLTAGE-DEPENDENT ANION-SELECTIVE CHANNEL, PUTATIVE): 1.14; fold change (protein LMJF.03.0200 DELTA-1-PYRROLINE-5-CARBOXYLATE DEHYDROGENASE, PUTATIVE): 1.09; fold change (protein LMJF.03.0980 […] 2 ALPHA SUBUNIT, PUTATIVE): 1.17; fold change vs vehicle control (protein LMJF.04.1230 actin): 1.1; fold change vs vehicle control (protein LMJF.07.0220 HY[…], CONSERVED): 1.01; fold change (protein LMJF.07.0270 […] DEACETYLASE-LIKE PROTEIN): 1.11; fold change (protein LMJF.07.0340 ATP-DEPENDENT DEAD/H RNA HELICASE, PUTATIVE): 0.95; fold change (protein LMJF.07.0640 HY[…], CONSERVED): 0.87; fold change (protein LMJF.07.1000 RNA BINDING PROTEIN-LIKE PROTEIN): 1.35; fold change (protein LMJF.07.1140 PEPTIDE […] REDUCTASE-LIKE): 1.01; fold change (protein LMJF.08.0320 MIT[…] RIBONUCLEASE, PUTATIVE): 1.06; fold change (protein LMJF.09.0970 […]-1 GAMMA): 0.98; fold change (protein LMJF.10.0210 NUCLEOLAR PROTEIN, PUTATIVE): 1.06; fold change (protein LMJF.11.0220 PTERIN-4-ALPHA-CARBINOLAMINE DEHYDRATASE, PUTATIVE): 1.03; fold change (protein LMJF.11.0350 14-3-3 PROTEIN, PUTATIVE): 0.96
